This is an account of results in article PMC2754437.

By UniProt entry, the sequences of proteins in these tests, tags left out. Where a name states a change or a piece, a line headed by the entry shows the natural chain unless it says otherwise. Chains listed by the source or under a name are the forms on record and can include a tag or linker. Residues count along the entry.
UniProt Q04887: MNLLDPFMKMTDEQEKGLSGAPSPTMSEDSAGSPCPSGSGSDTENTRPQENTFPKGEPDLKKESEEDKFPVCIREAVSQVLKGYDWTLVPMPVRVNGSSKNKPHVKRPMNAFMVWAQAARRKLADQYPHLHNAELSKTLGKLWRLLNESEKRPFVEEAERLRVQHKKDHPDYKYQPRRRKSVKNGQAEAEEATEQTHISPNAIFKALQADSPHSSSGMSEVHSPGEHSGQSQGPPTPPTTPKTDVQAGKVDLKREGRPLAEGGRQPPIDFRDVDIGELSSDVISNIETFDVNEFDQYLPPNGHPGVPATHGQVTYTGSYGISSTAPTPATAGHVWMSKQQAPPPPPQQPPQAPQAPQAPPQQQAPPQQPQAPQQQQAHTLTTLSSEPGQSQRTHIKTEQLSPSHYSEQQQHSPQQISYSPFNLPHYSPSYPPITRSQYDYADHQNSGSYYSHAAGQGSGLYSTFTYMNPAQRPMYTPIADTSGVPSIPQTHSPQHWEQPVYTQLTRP
Flag-tagged Sox9 with mutation of all Sox9 methylation sites (residues 74, 152, 177, 178, and 179, R to K) (Q04887, form named): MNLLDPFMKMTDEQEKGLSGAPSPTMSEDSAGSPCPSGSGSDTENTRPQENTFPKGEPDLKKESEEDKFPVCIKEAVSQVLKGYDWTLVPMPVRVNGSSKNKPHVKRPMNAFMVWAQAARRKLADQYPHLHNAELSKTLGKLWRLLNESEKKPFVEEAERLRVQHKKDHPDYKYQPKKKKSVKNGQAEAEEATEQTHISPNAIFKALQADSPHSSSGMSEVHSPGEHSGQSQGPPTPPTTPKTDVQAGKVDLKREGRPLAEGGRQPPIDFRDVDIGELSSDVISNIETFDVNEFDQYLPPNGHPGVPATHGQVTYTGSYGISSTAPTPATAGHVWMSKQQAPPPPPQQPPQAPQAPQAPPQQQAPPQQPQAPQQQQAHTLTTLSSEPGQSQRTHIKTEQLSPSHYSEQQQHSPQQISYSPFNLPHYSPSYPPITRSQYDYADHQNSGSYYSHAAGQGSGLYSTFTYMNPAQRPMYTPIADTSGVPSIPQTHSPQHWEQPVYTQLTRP
UniProt P35222: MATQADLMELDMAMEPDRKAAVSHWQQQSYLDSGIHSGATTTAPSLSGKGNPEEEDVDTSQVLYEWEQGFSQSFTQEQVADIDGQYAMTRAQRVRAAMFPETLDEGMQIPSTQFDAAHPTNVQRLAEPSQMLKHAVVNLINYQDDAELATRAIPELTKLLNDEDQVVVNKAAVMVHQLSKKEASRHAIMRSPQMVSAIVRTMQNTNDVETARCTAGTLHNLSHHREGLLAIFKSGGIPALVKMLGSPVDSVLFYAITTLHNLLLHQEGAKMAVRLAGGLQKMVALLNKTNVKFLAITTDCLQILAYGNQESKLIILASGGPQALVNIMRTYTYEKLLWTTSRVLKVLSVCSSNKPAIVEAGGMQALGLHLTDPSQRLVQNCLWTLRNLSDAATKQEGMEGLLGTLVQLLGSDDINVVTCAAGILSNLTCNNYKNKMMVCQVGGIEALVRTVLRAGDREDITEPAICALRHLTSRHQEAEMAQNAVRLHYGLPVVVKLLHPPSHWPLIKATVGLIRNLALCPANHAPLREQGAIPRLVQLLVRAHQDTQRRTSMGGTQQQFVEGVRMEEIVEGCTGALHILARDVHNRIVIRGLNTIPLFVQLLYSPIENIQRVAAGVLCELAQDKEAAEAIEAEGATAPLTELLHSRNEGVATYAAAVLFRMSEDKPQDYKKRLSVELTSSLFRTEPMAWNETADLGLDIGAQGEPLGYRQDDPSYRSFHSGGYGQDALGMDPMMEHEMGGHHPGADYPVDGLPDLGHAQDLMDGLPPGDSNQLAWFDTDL

No constants are given. Whether binding was seen depends on the method and setting. In cells and extracts the contact can be indirect. Some results given as binding are weak or reduced against the parent protein; the word gives no strength.

Assay [1] deals with Flag-tagged Sox9 with mutation of all Sox9 methylation sites (residues 74, 152, 177, 178, and 179, R to K) (UniProt Q04887). Kind of assay: co-IP; SW1353 cells transfected with wt or mutant Flag-Sox9; extracts in RIPA buffer (50 mM Tris-HCl pH 7.5, 200 mM NaCl, 1% Nonidet P-40); anti-Flag M2 precipitation, blot with anti-beta-catenin.
Assay [2] concerns the target Flag-tagged Sox9, wild type (UniProt Q04887). The description is as above.
Assay [3] deals with Flag-tagged Sox9 with mutation of all Sox9 methylation sites (residues 74, 152, 177, 178, and 179, R to K) (UniProt Q04887). Kind of assay: co-IP; as the co-IP from SW1353 cells, with CARM1 overexpressed (high-dose CARM1); anti-Flag M2 precipitation, blot with anti-beta-catenin.
The target of assay [4] is Flag-tagged Sox9, wild type (UniProt Q04887). The description is as above.

As for “endogenous beta-catenin (from UniProt P35222 1-781)”, the binding entry in assay [1] was “binds”; in assay [2], “binds”; in assay [3], “binds”; in assay [4], “binds weakly”.
